# Percent effect of library compounds

The values are deposited in ChEMBL (CHEMBL3988442, “University of Dundee, Small-Polar-MMV Screening Library” (2021)).

Results are given as percent effect.
How 0% and 100% were set is not recorded. Most values in the screen are low, and negative values occur.
The compounds are a random part of those screened.
Two or more numbers in one place are separate tests of the same structure; such repeats can differ widely.

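Phenotypic screen: M. tuberculosis growth, cholesterol and DPPC medium, 4 days; the read-out is not stated. Compounds at 50 µM. Direction is inferred from retests: higher values go with more growth inhibition. Of about 69,000 compounds tested this way, about 370 (0.54%) reached 50% or more in at least one test.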

SMILES | percent effect
O=C(CSc1ccc2c(c1)OCCO2)NS(=O)(=O)c1ccccc1 | -3.377%
[H][C@@]12CS(=O)(=O)C[C@]1([H])N(C(=O)NCC)CCN2Cc1ccc(CCC)o1 | 19.62%
CC1CCN(c2nc(O)cc(C3CC(=O)N(C4CCCCC4)C3)n2)CC1 (stereo not drawn) | 2.991% & 5%
CN(C)c1ccc(C(=O)N2CCCN(Cc3cnn(C)c3)CC2)nn1 | -12.51%
CN(C)c1cccc(C(=O)Nc2cnn(Cc3ccccn3)c2)c1 | -5.214%
CC(c1nc(C2CC2)no1)N1CCN(Cc2ccccc2F)CC1 (stereo not drawn) | 25.84%
O=C(C1CCCC1)N1CCC(c2ccnc(Nc3cnccn3)n2)C1 (stereo not drawn) | -24.74%
Cc1ccc2cc(CN(C)Cc3ccncn3)c(=O)[nH]c2c1 | 13.26%
CCc1ccc(C2CCCN2C(=O)Cc2ccc(NC(C)=O)cc2)o1 (stereo not drawn) | -10.33%
COCC(=O)N1CCN(Cc2cccnc2)c2ncccc2C1.O=C(O)C(F)(F)F.O=C(O)C(F)(F)F | -8.73%
COc1ccc(-c2ccc(C(=O)N3CCOCC3CC(N)=O)o2)cc1 (stereo not drawn) | -6.984%
CCC(=O)N1CCC2(CC1)CC(NC(=O)N(C)C)c1cc(C)ccc12 (stereo not drawn) | -4.547%
CSC(C)C(=O)N1CCN(CC(C)(C)O)CC1 (stereo not drawn) | 11.92%
CC(=O)Nc1nc(C(=O)NCc2ccc(N3CCCCC3)cc2)cs1 | -10.13%
Cc1cc(C(=O)NCC(Cc2cccc(F)c2)N2CCCCC2=O)no1 (stereo not drawn) | -14.51%
N#Cc1cccc(N2CCCC(CO)(Cc3ccccc3F)C2)n1 (stereo not drawn) | 87.33%
O=C(O)C(F)(F)F.O=C(O)C(F)(F)F.OCCN1CC2(CCN(CC3CC3)CC2)c2ccccc21 | 23.31%
CC1CCCN(C(=O)c2occc2COc2cccc(C#N)c2)C1 (stereo not drawn) | -4.067%
O=C(c1ccnn1COc1ccc(Cl)cc1)N1CCSCC1 | 12.15%
O=C(Cc1ccon1)NC1CC2(CCC2)Oc2ccccc21 (stereo not drawn) | 0.9928% & 4.962%
CN1CC[C@]2(CN(CC3CCOC3)C[C@H]2c2ccccc2)C1=O.O=C(O)C(F)(F)F (stereo partly drawn) | -26.56%
CCc1cnc(C)nc1NCCN1CCOCC1 | -11.08%
O=C(c1cc2ccccc2[nH]c1=O)N1CCC2(CCCNC2)C1 (stereo not drawn) | -12.94%
OC1CCN([C@@H]2CCN(c3nc(-c4ccccc4)no3)C[C@H]2O)CC1 | 5.506%
CN(C(=O)C1CC(=O)N(CCc2ccccc2)C1)c1nccs1 (stereo not drawn) | -3.19%
O=C(CCc1ccncc1)N1CCc2c(ncnc2N2CCOCC2)C1 | -69.79%
CCn1c(CC2CCN(C(=O)C3COCCO3)CC2)nn(C)c1=O (stereo not drawn) | -77.02%
CCOCc1ncn2c1CN(S(=O)(=O)c1ccc(F)cc1)CC2 | -31.51%
CN1C(=O)C2(CCN(CC3CC3)CC2)c2ccccc21.O=C(O)C(F)(F)F | -20.39%
CCN(Cc1ccc2c(c1)OCCO2)C(=O)NCc1csc(C)n1 | 20.21%
CCNC(=O)NC[C@H]1Cn2c(-c3ccccc3)cnc2CO1 | -16.93%
[H][C@@]12CCN(C(=O)CCc3ccccc3Cl)C[C@]1(COC)CCO2 | 8.403%
Cc1nc(CN2CCc3cc(C(=O)O)c(N(C)C)nc3CC2)cs1.O=C(O)C(F)(F)F.O=C(O)C(F)(F)F | -16.85%
COc1cc(OC)c(C2CC(=O)Oc3cc(C)[nH]c(=O)c32)c(OC)c1 (stereo not drawn) | -23.51%
N#Cc1ccccc1CN1CCc2sccc2C1 | 1.228%
CCOCCOC(C)C(=O)NCc1ccc(N2CCCCC2)cc1 (stereo not drawn) | -17.75%
COCCC(=O)N(Cc1cccnc1)CC1CCN(C2CCCC2)CC1 | 3.578%
Cc1cc(CNc2ccc(C(=O)N3CCc4ccccc43)cn2)on1 | 4.597%
CCN(CC)C(=O)Cn1ccc2cc(NC(=O)NC3CC3)ccc21 | -1.97%
Cc1nc(N2C[C@@H](CN3CCCN(C)CC3)[C@@H](CO)C2)c2ccsc2n1 | -32.54%
Brc1cccc(-c2nnc(CNCCn3cccn3)o2)c1 | -25.38%
Cc1cc(C(=O)N[C@H](C)c2onc(C)c2C(=O)O)c(C)o1.Cl | 12%
O=C(NCCC1=CCCCC1)NC1CCCc2c1cnn2CCO (stereo not drawn) | -12.4% & -10.49%
CN(Cc1ccccc1)C(=O)CN1CCCC1c1cnn(C)c1 (stereo not drawn) | -2.915% & -8.709%
Nc1cc(C(=O)NCC2CCN(Cc3ccncc3F)C2)ccn1 (stereo not drawn) | -9.571%
CC(C)(O)c1cc(CC2(NCC3CCCCC3)COC2)no1 | -12.21%

For reference, 5 entries once more:

| SMILES | percent effect |
|---|---|
| `CCN(Cc1ccc2c(c1)OCCO2)C(=O)NCc1csc(C)n1` | 20.21% |
| `Nc1cc(C(=O)NCC2CCN(Cc3ccncc3F)C2)ccn1` (stereo not drawn) | -9.571% |
| `Cc1cc(CNc2ccc(C(=O)N3CCc4ccccc43)cn2)on1` | 4.597% |
| `COc1cc(OC)c(C2CC(=O)Oc3cc(C)[nH]c(=O)c32)c(OC)c1` (stereo not drawn) | -23.51% |
| `CN(C)c1ccc(C(=O)N2CCCN(Cc3cnn(C)c3)CC2)nn1` | -12.51% |